Converted amounts (≈) assume the structure as drawn. At least one peptide structure holds a part that was inferred or is arguable (an end, a ring closure or a residue). Numbered stars: 1 amine (or outer) side, 2 acyl side, 3 side chain; on linkers, the order of the positions; unused ones are H or OH. Square brackets hold non-standard residues; d marks the D form. Peptide text beside a SMILES is read from it. NMePhe(3-F) = CN[C@@H](Cc1cccc(F)c1)C(=O)O; NMeVal(β-OH) = CN[C@H](C(=O)O)C(C)(C)O; Phe(3-F) = N[C@@H](Cc1cccc(F)c1)C(=O)O; NMeY = CN[C@@H](Cc1ccc(O)cc1)C(=O)O; aIle = CC[C@@H](C)[C@H](N)C(=O)O; X1 = CCC(C)C(O[*:1])C(=O)[*:2]; NMeV = CN[C@H](C(=O)O)C(C)C
Tests used:
Assay in all cases: MIC by agar dilution method, Casitone agar medium
Type in all cases: cell-based
[1] = tested on: Candida albicans TIMM 0171
[2] = tested on: Aspergillus fumigatus F-48
Candida kefyr TIMM 0301 = tested on: Candida kefyr TIMM 0301
[3] = tested on: Candida albicans TIMM 0144
[4] = tested on: Candida glabrata TIMM 1062
[5] = tested on: Cryptococcus neoformans TIMM 0354
[6] = tested on: Candida albicans TIMM 0136

Compound | MIC [1] | MIC [2] | MIC (Candida kefyr TIMM 0301) | MIC [3] | MIC [4] | MIC [5] | MIC [6]
CCC(C)C1OC(=O)[C@H](C(C)(C)O)N(C)C(=O)[C@H](CC(C)C)NC(=O)[C@H](C(C)C)N(C)C(=O)[C@H]([C@H](C)CC)NC(=O)[C@@H]2CCCN2C(=O)[C@H](Cc2ccc(O)cc2)N(C)C(=O)[C@H](Cc2ccc(O)cc2)NC(=O)[C@H](C(C)C)N(C)C1=O (stereo partly drawn) [Compound 3] (cyclo(L[NMeVal(β-OH)][X1][NMeV]Y[NMeY]P[aIle][NMeV])) | 0.10 µg/mL (≈ 0.0882 µM) | > 25 µg/mL | 0.39 µg/mL (≈ 0.344 µM) | 0.20 µg/mL (≈ 0.176 µM) | 0.78 µg/mL (≈ 0.688 µM) | > 25 µg/mL | 0.10 µg/mL (≈ 0.0882 µM)
CCC(C)C1OC(=O)[C@H](C(C)(C)O)N(C)C(=O)[C@H](CC(C)C)NC(=O)[C@H](C(C)C)N(C)C(=O)[C@H]([C@H](C)CC)NC(=O)[C@@H]2CCCN2C(=O)[C@H](Cc2cccc(F)c2)N(C)C(=O)[C@H](Cc2cccc(F)c2)NC(=O)[C@H](C(C)C)N(C)C1=O (stereo partly drawn) [Compound 2] (cyclo(L[NMeVal(β-OH)][X1][NMeV][Phe(3-F)][NMePhe(3-F)]P[aIle][NMeV])) | 0.10 µg/mL (≈ 0.0879 µM) | > 25 µg/mL | 0.78 µg/mL (≈ 0.686 µM) | 0.20 µg/mL (≈ 0.176 µM) | 0.78 µg/mL (≈ 0.686 µM) | > 25 µg/mL | 0.20 µg/mL (≈ 0.176 µM)

Reference: patent US5200505A, “R106 compounds” (Takara Shuzo Co., Ltd., priority 1990, dated 1993)
